# Data as given in the supplement of paper PMC8728848.
# Some of the results follow.
# B1: HHL-2 (Homo sapiens), P07307 (protein)
# chain: MAKDFQDIQQLSSEENDHPFHQGEGPGTRRLNPRRGNPFLKGPPPAQPLAQRLCSMVCFSLLALSFNILLLVVICVTGSQSEGHRGAQLQAELRSLKEAFSNFSSSTLTEVQAISTHGGSVGDKITSLGAKLEKQQQDLKADHDALLFHLKHFPVDLRFVACQMELLHSNGSQRTCCPVNWVEHQGSCYWFSHSGKAWAEAEKYCQLENAHLVVINSWEEQKFIVQHTNPFNTWIGLTDSDGSWKWVDGTDYRHNYKNWAVTQPDNWHGHELGGSEDCVEVQPDGRWNDDFCLQVYRWVCEKRRNATGEVA
# How the values were obtained:
# Experiment in all cases: glycan array binding signal (z-score within array); higher = stronger binding
# Settings in all cases: glycan notation: IUPAC condensed, linker removed
# GalNAc(a1-3)Gal = target: GalNAc(a1-3)Gal
# Summary of the method: (§1)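 Arrays were curated from the Consortium for Functional Glycomics database, 3228 in total, and kept only where the protein sequence was available. Binding is expressed as a within-array Z-score. This score was averaged across arrays of the same protein sequence at different concentrations or buffers and across linkers, and negative values can be read as non-binding.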
# GalNAc(a1-3)GalNAc = target: GalNAc(a1-3)GalNAc
# Summary of the method: as §1
# GalNAc(b1-3)Gal = target: GalNAc(b1-3)Gal
# Summary of the method: as §1
# [1] = target: GalNAc(b1-3)Gal(a1-4)Gal(b1-4)GlcNAc
# Summary of the method: as §1
# [2] = target: GalNAc(b1-3)Gal(a1-4)Gal(b1-4)GlcNAc(b1-3)Gal(b1-4)Glc
# Summary of the method: as §1
# GalNAc(b1-3)GalNAc = target: GalNAc(b1-3)GalNAc
# Summary of the method: as §1
# GalNAc(b1-4)GlcNAc = target: GalNAc(b1-4)GlcNAc
# Summary of the method: as §1
# [3] = target: GalNAc(b1-4)GlcNAc(b1-2)Man(a1-3)[GalNAc(b1-4)GlcNAc(b1-2)Man(a1-6)]Man(b1-4)GlcNAc(b1-4)GlcNAc
# Summary of the method: as §1
# Glc(a1-4)Glc = target: Glc(a1-4)Glc
# Summary of the method: as §1
# Glc(a1-6)Glc(a1-6)Glc = target: Glc(a1-6)Glc(a1-6)Glc
# Summary of the method: as §1
# Glc(b1-4)Glc = target: Glc(b1-4)Glc
# Summary of the method: as §1
# Glc(b1-6)Glc = target: Glc(b1-6)Glc
# Summary of the method: as §1
# GlcA(b1-3)Gal = target: GlcA(b1-3)Gal
# Summary of the method: as §1
# GlcA(b1-3)GlcNAc = target: GlcA(b1-3)GlcNAc
# Summary of the method: as §1
# GlcA(b1-6)Gal = target: GlcA(b1-6)Gal
# Summary of the method: as §1
# [4] = target: GlcNAc(a1-3)Gal(b1-4)GlcNAc
# Summary of the method: as §1
# [5] = target: GlcNAc(a1-4)Gal(b1-3)GlcNAc
# Summary of the method: as §1
# [6] = target: GlcNAc(a1-4)Gal(b1-4)GalNAc
# Summary of the method: as §1
# [7] = target: GlcNAc(a1-4)Gal(b1-4)GlcNAc
# Summary of the method: as §1
# [8] = target: GlcNAc(a1-4)Gal(b1-4)GlcNAc(b1-3)Gal(b1-4)Glc
# Summary of the method: as §1
# [9] = target: GlcNAc(a1-4)Gal(b1-4)GlcNAc(b1-3)Gal(b1-4)GlcNAc
# Summary of the method: as §1
# [10] = target: GlcNAc(a1-4)Gal(b1-4)GlcNAc(b1-3)Gal(b1-4)GlcNAc(b1-3)Gal(b1-4)GlcNAc
# Summary of the method: as §1
# [11] = target: GlcNAc(a1-4)Gal(b1-4)GlcNAc(b1-3)Gal(b1-4)[Fuc(a1-3)]GlcNAc(b1-3)Gal(b1-4)[Fuc(a1-3)]GlcNAc
# Summary of the method: as §1
# [12] = target: GlcNAc(a1-6)Gal(b1-4)GlcNAc
# Summary of the method: as §1
# [13] = target: GlcNAc(b1-2)Gal(b1-3)GalNAc
# Summary of the method: as §1
# [14] = target: GlcNAc(b1-2)Man(a1-3)[GlcNAc(b1-2)Man(a1-6)]Man(b1-4)GlcNAc(b1-4)GlcNAc
# Summary of the method: as §1
# [15] = target: GlcNAc(b1-2)Man(a1-3)[GlcNAc(b1-2)Man(a1-6)]Man(b1-4)GlcNAc(b1-4)[Fuc(a1-6)]GlcNAc
# Summary of the method: as §1
# GlcNAc(b1-3)Gal = target: GlcNAc(b1-3)Gal
# Summary of the method: as §1
# [16] = target: GlcNAc(b1-3)Gal(b1-3)GalNAc
# Summary of the method: as §1
# GlcNAc(b1-3)Gal(b1-4)Glc = target: GlcNAc(b1-3)Gal(b1-4)Glc
# Summary of the method: as §1
# [17] = target: GlcNAc(b1-3)Gal(b1-4)GlcNAc
# Summary of the method: as §1
# [18] = target: GlcNAc(b1-3)Gal(b1-4)GlcNAc(b1-3)Gal(b1-4)GlcNAc
# Summary of the method: as §1
# GlcNAc(b1-3)GalNAc = target: GlcNAc(b1-3)GalNAc
# Summary of the method: as §1
# GlcNAc(b1-3)Man = target: GlcNAc(b1-3)Man
# Summary of the method: as §1
# [19] = target: GlcNAc(b1-3)[GlcNAc(b1-4)][GlcNAc(b1-6)]GlcNAc
# Summary of the method: as §1
# [20] = target: GlcNAc(b1-3)[GlcNAc(b1-6)]Gal(b1-4)GlcNAc
# Summary of the method: as §1
# [21] = target: GlcNAc(b1-3)[GlcNAc(b1-6)]GalNAc
# Summary of the method: as §1
# [22] = target: GlcNAc(b1-4)Gal(b1-4)GlcNAc
# Summary of the method: as §1
binder,measurement,setting,value
B1,glycan array binding signal (z-score),GalNAc(a1-3)Gal,-0.378
same,glycan array binding signal (z-score),GalNAc(a1-3)GalNAc,-0.715
same,glycan array binding signal (z-score),GalNAc(b1-3)Gal,0.208
same,glycan array binding signal (z-score),[1],0.336
same,glycan array binding signal (z-score),[2],-0.49
same,glycan array binding signal (z-score),GalNAc(b1-3)GalNAc,0.593
same,glycan array binding signal (z-score),GalNAc(b1-4)GlcNAc,-0.795
same,glycan array binding signal (z-score),[3],3.17
same,glycan array binding signal (z-score),Glc(a1-4)Glc,-0.322
same,glycan array binding signal (z-score),Glc(a1-6)Glc(a1-6)Glc,-0.425
same,glycan array binding signal (z-score),Glc(b1-4)Glc,-0.859
same,glycan array binding signal (z-score),Glc(b1-6)Glc,-0.914
same,glycan array binding signal (z-score),GlcA(b1-3)Gal,-0.102
same,glycan array binding signal (z-score),GlcA(b1-3)GlcNAc,-0.012
same,glycan array binding signal (z-score),GlcA(b1-6)Gal,0.662
same,glycan array binding signal (z-score),[4],-0.572
same,glycan array binding signal (z-score),[5],0.252
same,glycan array binding signal (z-score),[6],-0.538
same,glycan array binding signal (z-score),[7],-0.571
same,glycan array binding signal (z-score),[8],-0.428
same,glycan array binding signal (z-score),[9],-0.284
same,glycan array binding signal (z-score),[10],-0.327
same,glycan array binding signal (z-score),[11],2.64
same,glycan array binding signal (z-score),[12],-0.458
same,glycan array binding signal (z-score),[13],-0.793
same,glycan array binding signal (z-score),[14],-0.677
same,glycan array binding signal (z-score),[15],0.079
same,glycan array binding signal (z-score),GlcNAc(b1-3)Gal,-0.705
same,glycan array binding signal (z-score),[16],-0.381
same,glycan array binding signal (z-score),GlcNAc(b1-3)Gal(b1-4)Glc,-0.486
same,glycan array binding signal (z-score),[17],-0.827
same,glycan array binding signal (z-score),[18],-0.333
same,glycan array binding signal (z-score),GlcNAc(b1-3)GalNAc,-0.745
same,glycan array binding signal (z-score),GlcNAc(b1-3)Man,-0.467
same,glycan array binding signal (z-score),[19],-0.642
same,glycan array binding signal (z-score),[20],-0.752
same,glycan array binding signal (z-score),[21],-0.617
same,glycan array binding signal (z-score),[22],-0.672

# Fetched one by one from the entries so far:
binder,measurement,setting,value
B1,glycan array binding signal (z-score),[5],0.252
same,glycan array binding signal (z-score),GlcA(b1-3)Gal,-0.102
